Values quoted from earlier work as cited in patent US10294275B2, “Site-selective functionalization of glycopeptide antibiotics” (Yale University, priority 2012, dated 2019).
At least one compound was matched to its structure with a doubt left.

Settings: pH=5.0; cited from earlier work

CC(=O)N[C@H]1[C@H](O[C@@H]2c3ccc(c(Cl)c3)Oc3cc4cc(c3O[C@@H]3O[C@H](CO)[C@@H](O)[C@H](O)[C@H]3NC(=O)CCCCCCC(C)C)Oc3ccc(cc3Cl)C[C@H]3NC(=O)[C@H](N)c5ccc(O)c(c5)Oc5cc(O)cc(c5)[C@H](NC3=O)C(=O)N[C@H]4C(=O)N[C@H]3C(=O)N[C@@H]2C(=O)N[C@H](C(=O)O)c2cc(O)cc(O[C@H]4O[C@H](CO)[C@@H](O)[C@H](O)[C@@H]4O)c2-c2cc3ccc2O)O[C@H](CO)[C@@H](O)[C@@H]1O [Teicoplanin A2-2, reference compound]
Ka (affinity for Ac-Lys-DAla-DAla): 1.6×106
